Test results published in PubChem BioAssay AID1508600 (Functional Genomics Laboratory (NCATS/FGL), 2020).
Among all 53,000 sequences or so, about 3,700 (7%) were called active.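 The calls were made as follows: active = gene knockdowns whose robust z-score for IL-1 alpha signal is at least 2 or at most -2, so actives lie on both sides; inactive = the rest.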 The list shows a part of the results.

Test: Components of the Cytosolic LPS Sensing Pathway: Gene Identification via Genome-wide siRNA Screen;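 also: robust z of the log signal after scaling to non-targeting control siRNA wells of the plate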
Details: RAW264.7 macrophages, IL-1a HTRF, actives lie on both sides, screened at 100 nM (by protocol), cells primed 5 h with Pam3CSK4 first
In short: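 IL-1a HTRF of supernatants after 24 hour LipidA transfection of Pam3CSK4-primed (5 hours) RAW264.7 cells, 48h post-siRNA transfection (100 nM). Scores: percent of plate negative-control median, then log-based robust z-score.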

Sequence | z-score
CACGGUAUAGCAGCUAUUATT against Mbtps2 | inactive: -1.46
GGAGUCUAAACUGACAAACTT against 1700088E04Rik | inactive: -0.6
GCUAGAGAAAAAACAGCCATT against Csf2rb | inactive: -0.75
GCUGGAAGAUCUGCUCAACTT against Eno4 | inactive: 0.486
GGCUGUAGUUGGCUAACACTT against Slc25a28 | inactive: -0.103
GGUUUACAAGUUUCUAAGCTT against Ube2o | inactive: 0.614
GGACCUCAUCUAUGCAUGUTT against Olfr1394 | inactive: -0.0256
GGUCAUUCAGCUGGAAGAUTT against Zfp143 | inactive: -1.07
GGACUAACAACUCUGGUCUTT against Mea1 | inactive: -0.199
GCGUAUCCCAGAUAUCCGATT against Fam180a | inactive: 0.951
GGAUGAUGCCGAUUACUUCTT against Vpreb3 | inactive: -0.352
GGAUGUCAAACUCGCCCUGTT against Olfr61 | inactive: 0.708
UUGCCUCUUCCUACGCCUUTT against Cers1 | inactive: -1.14
CCGACAGUCUUGAUAUUAATT against Cbx5 | inactive: -0.248
GGCCUUUGCACGUGGAUUGTT against Zfp420 | inactive: -0.221
GGUUUUGUCACCAUAGCCATT against 3110040N11Rik | inactive: -0.762
GGAUGAAUCUGAAGAUUCCTT against Nol3 | inactive: 0.113
CCUCCCAAUUCCAUUGGAATT against Serpinb3a | inactive: 1.02
CGGGUGUGCCGUGUUUGUATT against Tmem192 | inactive: 1.67
GGAGUGCACUGCAUCAUGUTT against Flywch2 | inactive: -0.289
CCUUUUCCCGCUCUUAAAATT against Olfr1260 | inactive: 0.616
GGACUUACUUCCCAUUUCGTT against Gdpd3 | inactive: 0.297

Sequence | z-score
CGAGCAAUGUUAAAAAUGATT against Slain2 | inactive: -0.993
GGCAAUUACUUCAUUGAUCTT against Kctd6 | inactive: 0.0121
GGAGGAACUCUGGCAAGCUTT against Zswim6 | inactive: 1.82
GCUUCUGAAUAUCAGACGGTT against Tmem150c | inactive: -0.202
CGGAGAGUAUGAGAGUUCCTT against Kank3 | inactive: 0.42
GGUGCCAUGGCUAUCUGUGTT against Tonsl | inactive: -0.294
GGUGAACCUGUCAAACCUUTT against Hspbap1 | inactive: -0.504
GCCAGAUAGACAAUGAAGUTT against Ctif | inactive: -0.288
GGCUUACCGUACCUUCCAATT against Cntf | inactive: 1.02
GGAAAUACCGGAACCAGAATT against Jmjd6 | inactive: 0.519
GGAGAACAGAUAAAUAGUGTT against Msh2 | inactive: -0.218
GGGAGAGGUAUGUCUGUAATT against Il15ra | inactive: -0.615
GGAGUACAGCUGUGUAAUATT against Pcna | inactive: 0.0721
GCGAUUGAGAGGCUACACUTT against Pigb | inactive: 0.402
GGGCUUAUUCUCAGUUCUGTT against Slc17a1 | inactive: -0.395
GGCUAAUGAUCAGGAUAUUTT against Cdh8 | inactive: 1.7
GCAAUAAAGCUCCUUCCAUTT against Ctrc | inactive: 1.68
GCACACACUGCUACGAUGGTT against Cd177 | inactive: 0.322
CCUAUGCAUCAGACCUUUGTT against Nedd9 | active: 2.7
CCUGCUCCUUACAUCUCGCTT against Foxred2 | inactive: 1.51
GGUGUCUGAAUUUGUGGCUTT against Abtb1 | inactive: -0.562
GCAUACAAAUGCACAUUGATT against Lsg1 | active: 2.69

Sequence | z-score
GGAGAAAUGUCAGUGCGAUTT against Mlc1 | inactive: 0.431
GGCUUUCUUUUGGAAGCUCTT against Frrs1 | inactive: -0.805
CCUACAAAAUCUUUCCCAATT against Ero1b | inactive: -0.741
GCGAGCUCAGAUCAAAUAGTT against Acsl3 | inactive: 1.7
GGUAUGGAAGACAAAACCUTT against Nlrp1a | inactive: 0.61
GGUCAACUCUACCAUAUCATT against Tnfsf8 | inactive: -0.66
GGAUAAAGUUUAAGGAUGGTT against Vmn1r40 | inactive: -0.43
GGAGAGAACAUUGAACAAATT against Ssx2ip | inactive: 0.782
GGGCUUUCUAUGCUGGAGGTT against Atp8b3 | inactive: 0.0965
AUGCAGUCAGAGACAGACCTT against Gm5168 | inactive: -0.21
GGUGUCUGCUUCUUCAAAGTT against Slc25a26 | active: -2.33
GGAAAUAGACGCAAAAAUATT against Chsy3 | inactive: 0.593
GGGACAUUUUCUUCUUUAUTT against Gch1 | inactive: 0.703
GGUUGGUUAAUCCAACCAGTT against Fpr3 | inactive: 1.14
GCAUUGUGAUGACCACCUGTT against Slc10a1 | inactive: -1.45
GUUAACCCUGAGCCUAAACTT against Spata3 | inactive: 0.356
GGAGGAGGCAGAAACAACATT against Tex46 | inactive: 1.87
GGAAUUUUAGCCAAGACAATT against Bbs4 | inactive: -0.221
GGGAAGGAUGACCUAACAATT against Gpatch4 | inactive: -0.839
GCCCAAACUAAAUAAAGGATT against Il1r2 | inactive: 0.153
GCCAAAAACGAUGAAAUGUTT against Phf11d | inactive: -0.801
GCUCAUCGGAGAGUUCUAUTT against Ube2h | inactive: 0.594

Sequence | z-score
CCUAAUGGAAGGGAAGCCATT against Cox19 | active: -2.06
GGGAAAUCACAAUUCCUUATT against Mcm9 | inactive: 0.664
CCCUGCUUAACAAACCAACTT against Ggcx | inactive: 0.197
GCCUUAUAUAGCAACAUACTT against Slc25a3 | inactive: 0.285
GAAAUGAGUCCUUGAAAAGTT against Olfr127 | inactive: -0.0661
GCUGUGGUGUUAGAAAUAATT against Samt3 | inactive: 0.306
GCAGUUUGGUGAAUCCAGCTT against Nsun6 | inactive: 0.437
CCAAGAAUGACGAUUGCUCTT against Synm | inactive: 0.543
GGACAAAGGCUGUAUUUUCTT against Tgm3 | inactive: -1.07
CCACUUUUUUAGAUCCCUGTT against Usb1 | inactive: -1.3
CCAUGUUACAUGAAAUAGUTT against Phf21a | inactive: 0.148
GGAUAUCCAAGUAAGGUGUTT against Mrpl9 | inactive: -0.504
GCAAAAGUAUCUACUGGCGTT against Clec1b | inactive: 0.546
CCGAAGCUUUAUCUUCUAUTT against Pkd2 | inactive: -0.719
GGAUGGGUUUGAUCUUAAUTT against Il13ra2 | inactive: 0.519
CCUCUGUUGGUCGUAAAGCTT against Zc4h2 | inactive: -1.54
GGAUAAGGGACAAAAACCCTT against Krba1 | inactive: -1.69
GGUAGACUCUAGAUUAAGATT against Srrm2 | inactive: -0.58
GGUCAAAGAACAAAAAGAATT against Muc13 | inactive: -0.176
GCGAGAUGGAAGGAUCUUGTT against Anapc13 | active: 5.28
GGCCAAGUAGCCAUGGGAUTT against Lyl1 | inactive: -0.124
GGAAUAGUAACUCUUUCUCTT against Ehbp1l1 | inactive: -0.0157

Shown with tabs: part of the list above
Sequence	z-score
CCUAAUGGAAGGGAAGCCATT against Cox19	active: -2.06
GGGAAAUCACAAUUCCUUATT against Mcm9	inactive: 0.664
CCCUGCUUAACAAACCAACTT against Ggcx	inactive: 0.197
GCCUUAUAUAGCAACAUACTT against Slc25a3	inactive: 0.285
GAAAUGAGUCCUUGAAAAGTT against Olfr127	inactive: -0.0661
GCUGUGGUGUUAGAAAUAATT against Samt3	inactive: 0.306
GCAGUUUGGUGAAUCCAGCTT against Nsun6	inactive: 0.437
CCAAGAAUGACGAUUGCUCTT against Synm	inactive: 0.543
GGACAAAGGCUGUAUUUUCTT against Tgm3	inactive: -1.07
CCACUUUUUUAGAUCCCUGTT against Usb1	inactive: -1.3
CCAUGUUACAUGAAAUAGUTT against Phf21a	inactive: 0.148
GGAUAUCCAAGUAAGGUGUTT against Mrpl9	inactive: -0.504
GCAAAAGUAUCUACUGGCGTT against Clec1b	inactive: 0.546
CCGAAGCUUUAUCUUCUAUTT against Pkd2	inactive: -0.719
GGAUGGGUUUGAUCUUAAUTT against Il13ra2	inactive: 0.519
CCUCUGUUGGUCGUAAAGCTT against Zc4h2	inactive: -1.54
GGAUAAGGGACAAAAACCCTT against Krba1	inactive: -1.69
GGUAGACUCUAGAUUAAGATT against Srrm2	inactive: -0.58
GGUCAAAGAACAAAAAGAATT against Muc13	inactive: -0.176
GCGAGAUGGAAGGAUCUUGTT against Anapc13	active: 5.28
GGCCAAGUAGCCAUGGGAUTT against Lyl1	inactive: -0.124
GGAAUAGUAACUCUUUCUCTT against Ehbp1l1	inactive: -0.0157

More entries:

Sequence | z-score
GCUUAUUUGAAGUCUCAUGTT against Cpa5 | inactive: -0.625
AUUGCAUUCCUCCAGACUGTT against Xlr4c | inactive: 0.865
GGCCAUCCAUUGAAGACAUTT against Stk-ps2 | inactive: 1.05
GGUCCUAGACUGGUGUCAUTT against Adat2 | inactive: 0.964
CCGGCACACCAUUGAUUUCTT against 4931428F04Rik | inactive: -1.73
GGAAACACUAAAGUCAUUUTT against Gabrg1 | inactive: 0.823
CCGAGGACUAUUUGAAACGTT against Mrtfa | inactive: -1.46
GGGUGUUGUGUCCUCUCAATT against Gckr | inactive: 0.0744
GGUAAAUCAAAUCACUGCCTT against Slamf1 | inactive: 0.316
CGUAGGUUGUAAUGGUGGCTT against BC051665 | inactive: 1.19
GGGAAUUAGAUGUGUGUAUTT against Dpp6 | inactive: -0.237
GGGAUAUUCACUUUUGUAGTT against Arnt | inactive: -1.42
GGGAUACUACUUUCUAACATT against Rspo3 | inactive: 1.29
CCUCAUAGAAUGAACAUGATT against Timp3 | inactive: -0.718
GCCAUUUCUUAUCAAGUGGTT against Laptm4a | active: -2.63
GCGGUUUCUCCUUGGUAAATT against Ankmy1 | inactive: 0.15
GGGACGUGAACAGCUAAAGTT against Vipas39 | inactive: 0.516
GGUCUUGUCGAUGUUCGCATT against Abhd6 | inactive: 1.78
GGUUUUGUACUUUCAUAGATT against Fam111a | inactive: 0.523
